Source: patent publication US20250283871A1, “COMPOSITIONS AND METHODS FOR MODULATING THE INTERACTION BETWEEN SS18-SSX FUSION ONCOPROTEIN AND NUCLEOSOMES” (Dana-Farber Cancer Institute, Inc., priority 2020, published 2025)
Values joined by “and” are separate entries in the source; they are usually repeats but may differ in a detail not shown here. Equal entries are not always repeated.

System: BAF complex subunits and histone proteins
Test: Mass spectrometry proteomics of purified HA-SS18 WT and HA-SS18-SSX1 complexes (Tables 5A-5E)
Parameters: species or system human
[1] = HA-SS18SSX1_CHR_peptides: protein identified in the HA-SS18-SSX1 purification from solubilized chromatin (CHR), HEK-293T
[2] = HA-SS18WT_CHR_peptides: HA-SS18 WT purification from nuclease-treated solubilized chromatin (CHR), HEK-293T, label = protein identified
[3] = HA-SS18SSX1 purification, NE (soluble nuclear extract) fraction, HEK-293T, peptides per identified protein
[4] = HA-SS18WT_CHR_peptides: protein identified in HA-SS18 WT BAF complex purification from nuclease-treated solubilized chromatin (CHR), HEK-293T
[5] = HA-SS18WT_NE_peptides: HA-SS18 WT complexes purified from nuclear extract (NE), HEK-293T, label = protein identified (Gene Symbol)
[6] = HA-SS18WT_NE_peptides: proteins co-purified with HA-SS18 WT from nuclear extract (NE), HEK-293T
[7] = HA-SS18SSX1_NE_peptides: protein co-purified with HA-SS18-SSX1 BAF complexes from soluble nuclear extract (NE), HEK-293T cells

| Molecule | Total (total peptides) [1] | Unique (unique peptides) [1] | Total (peptides) [2] | Unique (peptides) [2] | further results |
| --- | --- | --- | --- | --- | --- |
| EHMT1 (protein, UniProt Q9H9B1 2-1298, looked up) Histone-lysine …: AAADAEAVPARGEPQQDCCVKTELLGEETPMAADEGSAEKQAGEAHMAADGETNGSCENSDASSHANAAKHTQDSARVNPQDGTNTLTRIAENGVSERDSEAAKQNHVTADDFVQTSVIGSNGYILNKPALQAQPLRTTSTLASSLPGHAAKTLPGGAGKGRTPSAFPQTPAAPPATLGEGSADTEDRKLPAPGADVKVHRARKTMPKSVVGLHAASKDPREVREARDHKEPKEEINKNISDFGRQQLLPPFPSLHQSLPQNQCYMATTKSQTACLPFVLAAAVSRKKKRRMGTYSLVPKKKTKVLKQRTVIEMFKSITHSTVGSKGEKDLGASSLHVNGESLEMDSDEDDSEELEEDDGHGAEQAAAFPTEDSRTSKESMSEADRAQKMDGESEEEQESVDTGEEEEGGDESDLSSESSIKKKFLKRKGKTDSPWIKPARKRRRRSRKKPSGALGSESYKSSAGSAEQTAPGDSTGYMEVSLDSLDLRVKGILSSQAEGLANGPDVLETDGLQEVPLCSCRMETPKSREITTLANNQCMATESVDHELGRCTNSVVKYELMRPSNKAPLLVLCEDHRGRMVKHQCCPGCGYFCTAGNFMECQPESSISHRFHKDCASRVNNASYCPHCGEESSKAKEVTIAKADTTSTVTPVPGQEKGSALEGRADTTTGSAAGPPLSEDDKLQGAASHVPEGFDPTGPAGLGRPTPGLSQGPGKETLESALIALDSEKPKKLRFHPKQLYFSARQGELQKVLLMLVDGIDPNFKMEHQNKRSPLHAAAEAGHVDICHMLVQAGANIDTCSEDQRTPLMEAAENNHLEAVKYLIKAGALVDPKDAEGSTCLHLAAKKGHYEVVQYLLSNGQMDVNCQDDGGWTPMIWATEYKHVDLVKLLLSKGSDINIRDNEENICLHWAAFSGCVDIAEILLAAKCDLHAVNIHGDSPLHIAARENRYDCVVLFLSRDSDVTLKNKEGETPLQCASLNSQVWSALQMSKALQDSAPDRPSPVERIVSRDIARGYERIPIPCVNAVDSEPCPSNYKYVSQNCVTSPMNIDRNITHLQYCVCIDDCSSSNCMCGQLSMRCWYDKDGRLLPEFNMAEPPLIFECNHACSCWRNCRNRVVQNGLRARLQLYRTRDMGWGVRSLQDIPPGTFVCEYVGELISDSEADVREEDSYLFDLDNKDGEVYCIDARFYGNVSRFINHHCEPNLVPVRVFMAHQDLRFPRIAFFSTRLIEAGEQLGFDYGERFWDIKGKLFSCRCGSPKCRHSSAALAQRQASAAQEAQEDGLPDTSSAAAADPL | 7 | 5 | 3 | 3 | – |
| DPF3 (protein, UniProt Q92784 1-378, looked up) Zinc finger protein DPF3: MATVIHNPLKALGDQFYKEAIEHCRSYNSRLCAERSVRLPFLDSQTGVAQNNCYIWMEKRHRGPGLAPGQLYTYPARCWRKKRRLHPPEDPKLRLLEIKPEVELPLKKDGFTSESTTLEALLRGEGVEKKVDAREEESIQEIQRVLENDENVEEGNEEEDLEEDIPKRKNRTRGRARGSAGGRRRHDAASQEDHDKPYVCDICGKRYKNRPGLSYHYAHTHLASEEGDEAQDQETRSPPNHRNENHRPQKGPDGTVIPNNYCDFCLGGSNMNKKSGRPEELVSCADCGRSGHPTCLQFTLNMTEAVKTYKWQCIECKSCILCGTSENDDQLLFCDDCDRGYHMYCLNPPVAEPPEGSWSCHLCWELLKEKASAFGCQA | 7 | 5 | – | – | Total (total peptides) [3]: 5; Unique (unique peptides) [3]: 4; Total (total peptides) [4]: 2; Unique (unique peptides) [4]: 2; Total (peptides) [5]: 6; Unique (peptides) [5]: 4; Total (peptides) [6]: 1; Unique (peptides) [6]: 1 |
| U2SURP (protein, UniProt O15042 2-1029, looked up) U2 snRNP-associated SURP …: ADKTPGGSQKASSKTRSSDVHSSGSSDAHMDASGPSDSDMPSRTRPKSPRKHNYRNESARESLCDSPHQNLSRPLLENKLKAFSIGKMSTAKRTLSKKEQEELKKKEDEKAAAEIYEEFLAAFEGSDGNKVKTFVRGGVVNAAKEEHETDEKRGKIYKPSSRFADQKNPPNQSSNERPPSLLVIETKKPPLKKGEKEKKKSNLELFKEELKQIQEERDERHKTKGRLSRFEPPQSDSDGQRRSMDAPSRRNRSSGVLDDYAPGSHDVGDPSTTNLYLGNINPQMNEEMLCQEFGRFGPLASVKIMWPRTDEERARERNCGFVAFMNRRDAERALKNLNGKMIMSFEMKLGWGKAVPIPPHPIYIPPSMMEHTLPPPPSGLPFNAQPRERLKNPNAPMLPPPKNKEDFEKTLSQAIVKVVIPTERNLLALIHRMIEFVVREGPMFEAMIMNREINNPMFRFLFENQTPAHVYYRWKLYSILQGDSPTKWRTEDFRMFKNGSFWRPPPLNPYLHGMSEEQETEAFVEEPSKKGALKEEQRDKLEEILRGLTPRKNDIGDAMVFCLNNAEAAEEIVDCITESLSILKTPLPKKIARLYLVSDVLYNSSAKVANASYYRKFFETKLCQIFSDLNATYRTIQGHLQSENFKQRVMTCFRAWEDWAIYPEPFLIKLQNIFLGLVNIIEEKETEDVPDDLDGAPIEEELDGAPLEDVDGIPIDATPIDDLDGVPIKSLDDDLDGVPLDATEDSKKNEPIFKVAPSKWEAVDESELEAQAVTTSKWELFDQHEESEEEENQNQEEESEDEEDTQSSKSEEHHLYSNPIKEEMTESKFSKYSEMSEEKRAKLREIELKVMKFQDELESGKRPKKPGQSFQEQVEHYRDKLLQREKEKELERERERDKKDKEKLESRSKDKKEKDECTPTRKERKRRHSTSPSPSRSSSGRRVKSPSPKSERSERSERSHKESSRSRSSHKDSPRDVSKKAKRSPSGSRTPKRSRRSRSRSPKKSGKKSRSQSRSPHRSHKKSKKNKH | 7 | 7 | – | – | Total (total peptides) [4]: 1; Unique (unique peptides) [4]: 1 |
| HP1BP3 (protein, UniProt Q5SSJ5 2-553, looked up) Heterochromatin protein …: ATDTSQGELVHPKALPLIVGAQLIHADKLGEKVEDSTMPIRRTVNSTRETPPKSKLAEGEEEKPEPDISSEESVSTVEEQENETPPATSSEAEQPKGEPENEEKEENKSSEETKKDEKDQSKEKEKKVKKTIPSWATLSASQLARAQKQTPMASSPRPKMDAILTEAIKACFQKSGASVVAIRKYIIHKYPSLELERRGYLLKQALKRELNRGVIKQVKGKGASGSFVVVQKSRKTPQKSRNRKNRSSAVDPEPQVKLEDVLPLAFTRLCEPKEASYSLIRKYVSQYYPKLRVDIRPQLLKNALQRAVERGQLEQITGKGASGTFQLKKSGEKPLLGGSLMEYAILSAIAAMNEPKTCSTTALKKYVLENHPGTNSNYQMHLLKKTLQKCEKNGWMEQISGKGFSGTFQLCFPYYPSPGVLFPKKEPDDSRDEDEDEDESSEEDSEDEEPPPKRRLQKKTPAKSPGKAASVKQRGSKPAPKVSAAQRGKARPLPKKAPPKAKTPAKKTRPSSTVIKKPSGGSSKKPATSARKEVKLPGKGKSTMKKSFRVKK | 7 | 7 | 3 | 3 | – |
| NOP14 (protein, UniProt P78316 1-857, looked up) Nucleolar protein 14: MAKAKKVGARRKASGAPAGARGGPAKANSNPFEVKVNRQKFQILGRKTRHDVGLPGVSRARALRKRTQTLLKEYKERDKSNVFRDKRFGEYNSNMSPEEKMMKRFALEQQRHHEKKSIYNLNEDEELTHYGQSLADIEKHNDIVDSDSDAEDRGTLSAELTAAHFGGGGGLLHKKTQQEGEEREKPKSRKELIEELIAKSKQEKRERQAQREDALELTEKLDQDWKEIQTLLSHKTPKSENRDKKEKPKPDAYDMMVRELGFEMKAQPSNRMKTEAELAKEEQEHLRKLEAERLRRMLGKDEDENVKKPKHMSADDLNDGFVLDKDDRRLLSYKDGKMNVEEDVQEEQSKEASDPESNEEEGDSSGGEDTEESDSPDSHLDLESNVESEEENEKPAKEQRQTPGKGLISGKERAGKATRDELPYTFAAPESYEELRSLLLGRSMEEQLLVVERIQKCNHPSLAEGNKAKLEKLFGFLLEYVGDLATDDPPDLTVIDKLVVHLYHLCQMFPESASDAIKFVLRDAMHEMEEMIETKGRAALPGLDVLIYLKITGLLFPTSDFWHPVVTPALVCLSQLLTKCPILSLQDVVKGLFVCCLFLEYVALSQRFIPELINFLLGILYIATPNKASQGSTLVHPFRALGKNSELLVVSAREDVATWQQSSLSLRWASRLRAPTSTEANHIRLSCLAVGLALLKRCVLMYGSLPSFHAIMGPLQALLTDHLADCSHPQELQELCQSTLTEMESQKQLCRPLTCEKSKPVPLKLFTPRLVKVLEFGRKQGSSKEEQERKRLIHKHKREFKGAVREIRKDNQFLARMQLSEIMERDAERKRKVKQLFNSLATQEGEWKALKRKKFKK | 7 | 7 | 3 | 3 | – |
| SAP18 (protein, UniProt O00422 2-153, looked up) Histone deacetylase complex …: AVESRVTQEEIKKEPEKPIDREKTCPLLLRVFTTNNGRHHRMDEFSRGNVPSSELQIYTWMDATLKELTSLVKEVYPEARKKGTHFNFAIVFTDVKRPGYRVKEIGSTMSGRKGTDDSMTLQSQKFQIGDYLDIAITPPNRAPPPSGRMRPY | 7 | 5 | – | – | – |
| HNRNPC (protein, UniProt P07910 2-306, looked up) Heterogeneous nuclear …: ASNVTNKTDPRSMNSRVFIGNLNTLVVKKSDVEAIFSKYGKIVGCSVHKGFAFVQYVNERNARAAVAGEDGRMIAGQVLDINLAAEPKVNRGKAGVKRSAAEMYGSVTEHPSPSPLLSSSFDLDYDFQRDYYDRMYSYPARVPPPPPIARAVVPSKRQRVSGNTSRRGKSGFNSKSGQRGSSKSGKLKGDDLQAIKKELTQIKQKVDSLLENLEKIEKEQSKQAVEMKNDKSEEEQSSSSVKKDETNVKMESEGGADDSAEEGDLLDDDDNEDRGDDQLELIKDDEKEAEEGEDDRDSANGEDDS | 7 | 4 | – | 3 and 6 | Total (HA-SS18SSX1_CHR_peptides, total peptides of the identified protein): 3; Unique (HA-SS18SSX1_CHR_peptides, unique peptides of the identified protein): 2; Total (peptides) [7]: 2; Unique (peptides) [7]: 2; Total (peptides) [5]: 2; Unique (peptides) [5]: 2; Total (peptides) [6]: 1; Unique (peptides) [6]: 1 |
